Laboratory results taken from the supplement of paper PMC10849652.
This is one part of the list.

Chains of the proteins cited; added tags and fusions are not shown. Lines headed by an entry give the natural chain unless they say otherwise; changes in a name come on top.
UniProt Q6NW29: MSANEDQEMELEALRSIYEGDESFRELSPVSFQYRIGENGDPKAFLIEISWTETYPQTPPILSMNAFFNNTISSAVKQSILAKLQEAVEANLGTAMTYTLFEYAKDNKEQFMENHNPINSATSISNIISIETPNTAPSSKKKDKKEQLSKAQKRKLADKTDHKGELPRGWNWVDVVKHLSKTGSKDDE
UniProt Q5VT52: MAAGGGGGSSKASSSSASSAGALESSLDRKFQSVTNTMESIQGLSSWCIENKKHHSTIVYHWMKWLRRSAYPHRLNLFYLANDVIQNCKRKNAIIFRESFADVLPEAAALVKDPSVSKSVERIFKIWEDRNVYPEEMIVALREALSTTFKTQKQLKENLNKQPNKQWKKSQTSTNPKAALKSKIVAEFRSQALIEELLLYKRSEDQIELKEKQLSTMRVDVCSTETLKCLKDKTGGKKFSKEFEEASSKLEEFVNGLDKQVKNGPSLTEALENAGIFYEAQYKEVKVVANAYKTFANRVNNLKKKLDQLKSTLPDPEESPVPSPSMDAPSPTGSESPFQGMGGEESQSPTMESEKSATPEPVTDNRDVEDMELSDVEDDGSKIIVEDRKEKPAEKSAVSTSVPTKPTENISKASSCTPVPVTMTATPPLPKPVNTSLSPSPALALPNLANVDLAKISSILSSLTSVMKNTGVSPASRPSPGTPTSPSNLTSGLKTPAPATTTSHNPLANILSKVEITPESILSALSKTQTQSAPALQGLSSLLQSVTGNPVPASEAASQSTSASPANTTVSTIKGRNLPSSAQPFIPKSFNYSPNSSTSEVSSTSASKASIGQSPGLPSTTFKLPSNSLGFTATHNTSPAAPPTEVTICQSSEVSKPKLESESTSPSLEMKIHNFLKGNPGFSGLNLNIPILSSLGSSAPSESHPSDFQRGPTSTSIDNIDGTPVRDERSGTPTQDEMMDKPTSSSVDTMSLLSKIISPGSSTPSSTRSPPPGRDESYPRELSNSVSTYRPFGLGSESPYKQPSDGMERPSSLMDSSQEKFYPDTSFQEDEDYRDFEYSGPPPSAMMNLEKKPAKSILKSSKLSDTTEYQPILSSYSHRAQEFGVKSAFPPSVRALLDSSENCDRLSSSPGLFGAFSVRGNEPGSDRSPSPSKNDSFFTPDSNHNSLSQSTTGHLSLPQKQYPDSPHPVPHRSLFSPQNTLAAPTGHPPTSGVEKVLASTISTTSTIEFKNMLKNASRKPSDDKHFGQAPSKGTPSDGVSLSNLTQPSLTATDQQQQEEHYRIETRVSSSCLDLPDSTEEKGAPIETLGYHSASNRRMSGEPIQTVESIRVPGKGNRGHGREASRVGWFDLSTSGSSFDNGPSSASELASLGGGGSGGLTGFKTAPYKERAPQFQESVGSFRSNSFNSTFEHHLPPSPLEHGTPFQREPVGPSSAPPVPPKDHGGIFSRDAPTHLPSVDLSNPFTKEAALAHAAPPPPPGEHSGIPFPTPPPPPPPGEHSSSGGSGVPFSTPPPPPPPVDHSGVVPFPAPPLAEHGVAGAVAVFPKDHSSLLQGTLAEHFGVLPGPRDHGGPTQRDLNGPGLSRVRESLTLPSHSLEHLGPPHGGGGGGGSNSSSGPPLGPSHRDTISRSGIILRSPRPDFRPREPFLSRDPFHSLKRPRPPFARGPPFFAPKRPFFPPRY
UniProt Q9NQG5: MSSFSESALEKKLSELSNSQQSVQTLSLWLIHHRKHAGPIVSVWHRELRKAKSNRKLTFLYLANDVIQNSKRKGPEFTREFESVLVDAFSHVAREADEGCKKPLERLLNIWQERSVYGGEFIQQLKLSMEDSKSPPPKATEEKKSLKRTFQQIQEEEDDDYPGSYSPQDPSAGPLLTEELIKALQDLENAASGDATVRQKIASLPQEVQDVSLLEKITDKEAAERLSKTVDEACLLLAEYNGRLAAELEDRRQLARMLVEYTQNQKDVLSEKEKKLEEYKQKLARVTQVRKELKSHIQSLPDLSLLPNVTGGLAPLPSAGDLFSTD
UniProt Q7L3V2: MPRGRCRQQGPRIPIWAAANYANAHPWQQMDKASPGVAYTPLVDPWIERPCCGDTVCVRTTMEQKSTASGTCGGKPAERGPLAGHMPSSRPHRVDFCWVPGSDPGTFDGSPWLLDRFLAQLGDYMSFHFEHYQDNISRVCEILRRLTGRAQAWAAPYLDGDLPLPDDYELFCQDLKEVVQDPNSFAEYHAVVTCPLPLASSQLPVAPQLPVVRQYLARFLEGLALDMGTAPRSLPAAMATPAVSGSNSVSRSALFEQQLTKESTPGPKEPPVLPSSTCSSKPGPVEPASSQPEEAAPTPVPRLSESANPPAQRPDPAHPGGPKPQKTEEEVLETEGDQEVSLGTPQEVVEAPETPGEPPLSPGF
UniProt Q9NQC3: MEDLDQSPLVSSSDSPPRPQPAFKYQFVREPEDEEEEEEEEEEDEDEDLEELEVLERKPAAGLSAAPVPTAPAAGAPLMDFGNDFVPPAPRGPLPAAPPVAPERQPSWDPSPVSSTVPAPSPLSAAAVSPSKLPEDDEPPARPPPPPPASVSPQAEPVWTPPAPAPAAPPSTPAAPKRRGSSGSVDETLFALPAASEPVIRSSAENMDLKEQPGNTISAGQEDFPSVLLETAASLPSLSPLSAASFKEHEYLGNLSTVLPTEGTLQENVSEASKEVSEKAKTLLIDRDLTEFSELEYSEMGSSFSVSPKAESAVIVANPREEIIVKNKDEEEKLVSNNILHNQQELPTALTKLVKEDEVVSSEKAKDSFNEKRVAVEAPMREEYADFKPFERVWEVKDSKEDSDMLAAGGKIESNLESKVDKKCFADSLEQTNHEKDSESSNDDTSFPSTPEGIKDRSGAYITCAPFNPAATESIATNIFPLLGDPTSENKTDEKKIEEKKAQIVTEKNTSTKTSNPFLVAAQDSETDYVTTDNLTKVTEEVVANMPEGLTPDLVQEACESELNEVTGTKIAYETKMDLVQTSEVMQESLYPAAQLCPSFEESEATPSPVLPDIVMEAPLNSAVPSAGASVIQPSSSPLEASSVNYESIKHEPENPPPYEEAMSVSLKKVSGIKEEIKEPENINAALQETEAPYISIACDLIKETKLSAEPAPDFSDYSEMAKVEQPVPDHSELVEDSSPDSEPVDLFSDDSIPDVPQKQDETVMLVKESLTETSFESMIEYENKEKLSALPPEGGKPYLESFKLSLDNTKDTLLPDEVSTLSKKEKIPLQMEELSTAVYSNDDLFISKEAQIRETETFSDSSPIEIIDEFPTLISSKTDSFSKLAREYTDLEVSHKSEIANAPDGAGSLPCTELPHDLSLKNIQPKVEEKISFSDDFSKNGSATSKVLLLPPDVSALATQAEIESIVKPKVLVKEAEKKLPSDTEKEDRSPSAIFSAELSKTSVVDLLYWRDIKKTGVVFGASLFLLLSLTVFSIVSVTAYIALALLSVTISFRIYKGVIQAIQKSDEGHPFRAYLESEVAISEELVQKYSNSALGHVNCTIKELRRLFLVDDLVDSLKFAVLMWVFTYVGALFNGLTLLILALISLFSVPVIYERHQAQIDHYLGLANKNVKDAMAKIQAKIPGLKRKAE
UniProt Q9HA92: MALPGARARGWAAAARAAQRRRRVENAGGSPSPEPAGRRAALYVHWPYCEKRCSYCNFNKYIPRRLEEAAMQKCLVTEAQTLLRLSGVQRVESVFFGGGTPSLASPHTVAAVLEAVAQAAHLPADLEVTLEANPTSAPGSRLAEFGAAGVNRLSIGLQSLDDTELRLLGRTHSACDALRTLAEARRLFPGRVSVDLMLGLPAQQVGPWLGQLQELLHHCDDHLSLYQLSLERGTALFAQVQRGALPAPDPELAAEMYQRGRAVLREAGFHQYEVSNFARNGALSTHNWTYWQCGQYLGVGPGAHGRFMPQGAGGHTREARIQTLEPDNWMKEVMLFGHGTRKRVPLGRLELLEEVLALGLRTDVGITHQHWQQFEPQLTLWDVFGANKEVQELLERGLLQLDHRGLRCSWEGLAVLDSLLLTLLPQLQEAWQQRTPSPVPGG
UniProt Q9NYV6: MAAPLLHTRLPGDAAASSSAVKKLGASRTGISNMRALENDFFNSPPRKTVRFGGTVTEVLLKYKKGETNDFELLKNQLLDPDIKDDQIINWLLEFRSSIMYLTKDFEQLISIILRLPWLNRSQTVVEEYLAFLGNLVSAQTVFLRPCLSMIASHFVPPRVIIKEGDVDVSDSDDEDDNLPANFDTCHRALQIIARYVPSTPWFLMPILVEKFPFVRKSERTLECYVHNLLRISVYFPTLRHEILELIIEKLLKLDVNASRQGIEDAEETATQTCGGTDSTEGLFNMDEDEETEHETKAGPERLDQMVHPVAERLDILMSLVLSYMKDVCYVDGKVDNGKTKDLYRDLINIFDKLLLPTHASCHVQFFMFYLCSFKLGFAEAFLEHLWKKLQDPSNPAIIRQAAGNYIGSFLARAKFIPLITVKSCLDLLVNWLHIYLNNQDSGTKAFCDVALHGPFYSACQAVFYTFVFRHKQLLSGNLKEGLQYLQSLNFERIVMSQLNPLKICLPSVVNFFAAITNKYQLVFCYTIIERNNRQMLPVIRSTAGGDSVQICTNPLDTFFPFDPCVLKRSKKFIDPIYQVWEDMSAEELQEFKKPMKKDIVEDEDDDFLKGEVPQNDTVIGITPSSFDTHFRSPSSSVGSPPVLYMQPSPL
UniProt P04844: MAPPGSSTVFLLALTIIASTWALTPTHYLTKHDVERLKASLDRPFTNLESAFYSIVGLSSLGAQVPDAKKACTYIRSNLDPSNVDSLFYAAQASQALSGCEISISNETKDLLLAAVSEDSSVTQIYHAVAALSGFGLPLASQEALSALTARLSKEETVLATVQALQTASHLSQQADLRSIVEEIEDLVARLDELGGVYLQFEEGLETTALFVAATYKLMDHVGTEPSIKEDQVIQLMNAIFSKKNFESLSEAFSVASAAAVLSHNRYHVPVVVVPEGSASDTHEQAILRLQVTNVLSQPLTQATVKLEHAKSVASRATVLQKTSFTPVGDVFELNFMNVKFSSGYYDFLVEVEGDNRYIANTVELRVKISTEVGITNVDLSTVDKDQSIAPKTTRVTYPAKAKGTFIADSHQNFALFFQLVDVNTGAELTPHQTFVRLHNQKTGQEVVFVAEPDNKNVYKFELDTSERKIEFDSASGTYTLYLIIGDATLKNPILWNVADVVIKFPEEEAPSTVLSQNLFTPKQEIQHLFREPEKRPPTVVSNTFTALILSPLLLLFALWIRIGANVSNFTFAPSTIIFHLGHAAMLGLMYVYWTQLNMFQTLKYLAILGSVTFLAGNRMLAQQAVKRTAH
UniProt P23443: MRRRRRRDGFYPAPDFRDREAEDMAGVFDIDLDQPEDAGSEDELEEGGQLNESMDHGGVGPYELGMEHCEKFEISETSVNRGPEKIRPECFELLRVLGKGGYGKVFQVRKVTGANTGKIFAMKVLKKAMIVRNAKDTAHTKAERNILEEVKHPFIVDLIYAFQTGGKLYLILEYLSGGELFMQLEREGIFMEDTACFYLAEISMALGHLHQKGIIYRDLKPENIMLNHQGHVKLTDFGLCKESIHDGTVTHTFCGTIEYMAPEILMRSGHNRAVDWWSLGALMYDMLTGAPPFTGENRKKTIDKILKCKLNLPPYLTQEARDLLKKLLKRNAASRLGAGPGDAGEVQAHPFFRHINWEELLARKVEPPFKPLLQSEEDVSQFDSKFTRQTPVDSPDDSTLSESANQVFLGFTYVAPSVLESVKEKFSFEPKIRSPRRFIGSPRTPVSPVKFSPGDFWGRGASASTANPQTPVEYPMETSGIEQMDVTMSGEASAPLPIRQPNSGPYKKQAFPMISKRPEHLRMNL
UniProt P62070: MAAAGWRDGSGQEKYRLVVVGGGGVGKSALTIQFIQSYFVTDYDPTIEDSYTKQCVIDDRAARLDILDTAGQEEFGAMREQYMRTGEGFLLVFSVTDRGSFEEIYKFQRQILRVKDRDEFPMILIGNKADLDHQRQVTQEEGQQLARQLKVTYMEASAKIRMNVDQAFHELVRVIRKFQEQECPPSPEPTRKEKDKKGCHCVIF
UniProt Q9Y230, whole entry, looked up: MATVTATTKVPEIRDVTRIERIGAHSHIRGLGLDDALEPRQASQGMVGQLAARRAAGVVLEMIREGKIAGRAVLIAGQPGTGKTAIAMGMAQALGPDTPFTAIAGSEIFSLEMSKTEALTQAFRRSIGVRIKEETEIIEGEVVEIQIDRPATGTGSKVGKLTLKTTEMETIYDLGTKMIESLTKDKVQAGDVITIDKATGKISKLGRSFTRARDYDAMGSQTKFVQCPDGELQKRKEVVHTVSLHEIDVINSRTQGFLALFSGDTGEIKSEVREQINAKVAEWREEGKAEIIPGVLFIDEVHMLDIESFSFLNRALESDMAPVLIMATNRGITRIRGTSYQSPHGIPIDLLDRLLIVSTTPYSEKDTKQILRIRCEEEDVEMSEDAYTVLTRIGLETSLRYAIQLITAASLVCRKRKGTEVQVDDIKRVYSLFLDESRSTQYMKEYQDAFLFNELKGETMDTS

Columns and labels:
Test in all cases: log2 fold change, soluble protein after heating vs DMSO (PISA); higher = thermal stabilisation; K562 lysate, 10 uM; active = over 0.2 and 3.5 SD of the protein, either way, in both replicates (recomputed)
[1] = compound: C1=CC=C(C=C1)[C@H](COC2=CC3=C(C=C2)NC(=O)N3)NC(=O)C4=CC=CN(C4=O)CC5=CC(=C(C=C5)F)F
Summary of the method: (§1)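 Log-two fold change in thermal stability relative to solvent controls is reported from duplicates. For each sample, crude K562 extract from dounce-homogenised pellets in PBS pH 7.4 with 1 mM MgCl2, at 1 mg/mL protein, was treated with 10 μM compound for 30 min. Aliquots heated for 3 min across 48°C-58°C were pooled, brought to 0.5% NP-40 at 4°C and cleared at 21,000xg for 90 min. The supernatant was quantified by TMTpro 16plex LC-MS/MS with channel sums equalised.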

[2] = compound: CC1=C(SC2=C1C(=N[C@H](C3=NN=C(N32)C)CC(=O)N)C4=CC=C(C=C4)Cl)C
Summary of the method: as §1

[3] = compound: CC1=C2C(=CC=C1)N=C(N(C2=O)C3=CC=CC=C3C)CN4C=NC5=C(N=CN=C54)N
Summary of the method: as §1

[4] = compound: Cc1sc2c(c1C)C(c1ccc(Cl)cc1)=N[C@@H](CC(=O)OC(C)(C)C)c1nnc(C)n1-2
Summary of the method: as §1

[5] = compound: c1ccc([C@@H]2C[C@H]2NC2CCNCC2)cc1
Summary of the method: as §1

Measured: log2 fold change

RPS15A (UniProt P62244)
inactive: [1] 0.013 | [2] 0.018 | [3] 0.021 | [4] 0.058 | [5] 0.035

RPS12 (UniProt P25398)
inactive: [1] 0.021 | [2] -0.04 | [3] -0.001 | [4] 0.014 | [5] -0.042

RWDD4 (UniProt Q6NW29)
inactive: [1] 0.039 | [2] -0.089 | [3] -0.029 | [4] 0.033 | [5] -0.008

RPL8 (UniProt P62917)
inactive: [1] -0.012 | [2] -0.036 | [3] -0.031 | [4] 0.066 | [5] 0.032

RPS7, A0A2R8Y623
inactive: [1] -0.016 | [2] 0.069 | [3] 0.021 | [4] -0.01

RPS28 (UniProt P62857)
inactive: [1] 0.132 | [2] -0.123 | [3] 0.007 | [4] -0.039 | [5] -0.035

RPSA (UniProt P08865)
inactive: [1] 0.009 | [2] 0.022 | [3] 0.008 | [4] 0.064 | [5] 0.023

RPS3A (UniProt P61247)
inactive: [1] -0.014 | [2] 0.005 | [3] -0.033 | [4] 0.037 | [5] 0.012

RPRD2 (UniProt Q5VT52)
inactive: [1] -0.01 | [2] 0.161 | [3] 0.069 | [4] 0.002 | [5] -0.003

RPRD1B (UniProt Q9NQG5)
inactive: [1] -0.022 | [2] 0.032 | [3] -0.077 | [4] 0.012 | [5] 0.016

RTL10 (UniProt Q7L3V2)
inactive: [1] -0.15 | [2] -0.213 | [3] 0.011 | [4] -0.073 | [5] 0.019

RTN4 isoform 5 (UniProt Q9NQC3)
inactive: [1] -0.064 | [2] -0.056 | [3] -0.246 | [4] 0.007 | [5] -0.261

RPL36A (UniProt P83881)
inactive: [1] -0.04 | [2] -0.001 | [3] -0.018 | [4] -0.011 | [5] 0.01

RPLP0P6 (UniProt Q8NHW5)
inactive: [1] 0.052 | [2] -0.038 | [3] -0.002 | [4] -0.026 | [5] -0.027

RPS3 (UniProt P23396)
inactive: [1] -0.009 | [2] 0.021 | [3] -0.022 | [4] 0.033 | [5] 0.039

RSBN1L (UniProt Q6PCB5)
inactive: [1] 0.012 | [2] -0.015 | [3] 0.006 | [4] -0.026 | [5] -0.04

RSAD1 (UniProt Q9HA92)
inactive: [1] -0.001 | [2] 0.111 | [3] 0.113 | [4] -0.078 | [5] -0.281

RRN3 (UniProt Q9NYV6)
inactive: [1] -0.171 | [2] -0.06 | [3] 0.098 | [4] -0.223 | [5] 0.027

RPS27L (UniProt Q71UM5)
inactive: [1] -0.08 | [2] 0.086 | [3] 0.014 | [4] 0.044 | [5] 0.072

RPL37A (UniProt P61513)
inactive: [1] -0.009 | [2] 0 | [3] -0.031 | [4] 0.191 | [5] 0.166

RPL6 (UniProt Q02878)
inactive: [1] -0.001 | [2] 0 | [3] -0.022 | [4] 0.027 | [5] 0.032

RPN2 (UniProt P04844)
inactive: [1] -0.001 | [2] -0.01 | [3] 0.01 | [4] -0.008 | [5] -0.009

RPS6KB1 (UniProt P23443)
inactive: [1] 0.029 | [2] -0.051 | [3] 0.027 | [4] 0.023 | [5] -0.018

RRAS2 (UniProt P62070)
inactive: [1] -0.021 | [2] 0.013 | [3] -0.037 | [4] -0.033 | [5] 0.016

RUVBL2 (UniProt Q9Y230)
inactive: [1] 0.012 | [2] 0.002 | [3] 0.01 | [4] 0 | [5] 0.001

2 records drawn at random from those above, as already listed:
RPS6KB1 (UniProt P23443)
inactive: [1] 0.029 | [2] -0.051 | [3] 0.027 | [4] 0.023 | [5] -0.018

RPL6 (UniProt Q02878)
inactive: [1] -0.001 | [2] 0 | [3] -0.022 | [4] 0.027 | [5] 0.032
